Data published in patent publication US20210380703A1.
No constants are given. Whether binding was seen depends on the method and setting. Sequences can lack the tags named with a protein.

T1: His-tagged Mouse ACVR2B (mouse) (UniProt P27040)
T1 sequence (looked up): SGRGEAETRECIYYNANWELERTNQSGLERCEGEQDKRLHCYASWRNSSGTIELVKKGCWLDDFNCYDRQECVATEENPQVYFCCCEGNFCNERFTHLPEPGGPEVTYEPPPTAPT

T2: His-tagged Human ACVR2B (human) (UniProt Q13705)
T2 sequence (looked up): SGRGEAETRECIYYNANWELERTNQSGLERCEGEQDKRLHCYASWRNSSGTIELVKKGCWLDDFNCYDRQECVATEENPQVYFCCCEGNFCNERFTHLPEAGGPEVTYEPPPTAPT

B1: 372_A04 (antibody, V domains shown)
VH: EVQLLESGGGLVQPGGSLRLSCAASGFTFDSYSMNWVRQAPGKGLEWVSGINYNSGYTSYADSVKGRFTISRDNSKNTLYLQMNSLRAEDTAVYYCARSANWHDTALDYWGQGTLVTVSS
VL: DIQMTQSPSSLSASVGDRVTITCRASQSILTYLNWYQQKPGKAPKLVIYAATSRASGVPSRFSGSGSGTDFTLTISSLQPEDFATYYCQQSYETPLTFGGGTKVEIK
B2: 372_F03 (antibody, V domains shown)
VH: EVQLLESGGGLVQPGGSLRLSCAASGFTFSSYGMNWVRQAPGKGLEWVAGINYNGGYTSYADSVKGRFTISRDNSKNTLYLQMNSLRAEDTAVYYCARSANWHDTALDYWGQGTLVTVSS
VL: DIQMTQSPSSLSASVGDRVTITCRASQSILSYLNWYQQKPGKAPKLVIYAATSRASGVPSRFSGSGSGTDFTLTISSLQPEDFATYYCQQSYDTPLTFGGGTKVEIK
B3: 372_F08 (antibody, V domains shown)
VH: EVQLLESGGGLVQPGGSLRLSCAASGFTFSDYSMNWVRQAPGKGLEWVSNINYNSGYTGYADSVKGRFTISRDNSKNTLYLQMNSLRAEDTAVYYCARSANWHDTALDYWGQGTLVTVSS
VL: DIQMTQSPSSLSASVGDRVTITCRASQSILTYVNWYQQKPGKAPKLVIYAATSRASGVPSRFSGSGSGTDFTLTISSLQPEDFATYYCQQSYDTPLTFGGGTKVEIK
B4: 373_B04 (antibody, V domains shown)
VH: EVQLLESGGGLVQPGGSLRLSCAASGFTFSSYGMNWVRQAPGKGLEWVAGINYNSGYKGYADSVKGRFTISRDNSKNTLYLQMNSLRAEDTAVYYCARSANWHDTALDYWGQGTLVTVSS
VL: DIQMTQSPSSLSASVGDRVTITCRASQSILTYLNWYQQKPGKAPKLLIYAATSRASGVPSRFSGSGSGTDFTLTISSLQPEDFATYYCQQSYETPLTFGGGTKVEIK
B5: 373_D04 (antibody, V domains shown)
VH: EVQLLESGGGLVQPGGSLRLSCAASGFTFDSYSMNWVRQAPGKGLEWVSGINYNSGYKGYADSVKGRFTISRDNSKNTLYLQMNSLRAEDTAVYYCARSANWHDTALDYWGQGTLVTVSS
VL: DIQMTQSPSSLSASVGDRVTITCRASQSILSYLNWYQQKPGKAPKLLIYAATSRHSGVPSRFSGSGSGTDFTLTISSLQPEDFATYYCQQSYDSPLTFGGGTKVEIK
B6: 373_D10 (antibody, V domains shown)
VH: EVQLLESGGGLVQPGGSLRLSCAASGFTFDSYSMNWVRQAPGKGLEWVSNINYNSGYKGYADSVKGRFTISRDNSKNTLYLQMNSLRAEDTAVYYCARSANWHDTALDYWGQGTLVTVSS
VL: DIQMTQSPSSLSASVGDRVTITCRASQSILSYVNWYQQKPGKAPKLLIYAATSRASGVPSRFSGSGSGTDFTLTISSLQPEDFATYYCQQSYDLPLTFGGGTKVEIK
B7: 374_B04 (antibody, V domains shown)
VH: EVQLLESGGGLVQPGGSLRLSCAASGFTFSSYSMNWVRQAPGKGLEWVSNINYNSGYTGYADSVKGRFTISRDNSKNTLYLQMNSLRAEDTAVYYCARSANWHDTALDYWGQGTLVTVSS
VL: DIQMTQSPSSLSASVGDRVTITCRASQSIVSYLNWYQQKPGKAPKLLIYAVTSRASGVPSRFSGSGSGTDFTLTISSLQPEDFATYYCQQSYESPLTFGGGTKVEIK
B8: 374_B06 (antibody, V domains shown)
VH: EVQLLESGGGLVQPGGSLRLSCAASGFTFDSYSMNWVRQAPGKGLEWVAGINYNSGYKGYADSVKGRFTISRDNSKNTLYLQMNSLRAEDTAVYYCARSANWHDTHLDYWGQGTLVTVSS
VL: DIQMTQSPSSLSASVGDRVTITCRASQSILTYVNWYQQKPGKAPKLLIYAATSRASGVPSRFSGSGSGTDFTLTISSLQPEDFATYYCQQSYDTPLTFGGGTKVEIK
B9: 374_C03 (antibody, V domains shown)
VH: EVQLLESGGGLVQPGGSLRLSCAASGFTFDSYSMNWVRQAPGKGLEWVSGINYNSGYTSYADSVKGRFTISRDNSKNTLYLQMNSLRAEDTAVYYCARSANWHDTALDYWGQGTLVTVSS
VL: DIQMTQSPSSLSASVGDRVTITCRASQSILTYLNWYQQKPGKAPKLLIYAATSRASGVPSRFSGSGSGTDFTLTISSLQPEDFATYYCQQSYDSPLTFGGGTKVEIK
B10: 374_C06 (antibody, V domains shown)
VH: EVQLLESGGGLVQPGGSLRLSCAASGFTFDDYSMNWVRQAPGKGLEWVSSINYNSGYKGYADSVKGRFTISRDNSKNTLYLQMNSLRAEDTAVYYCARSANWHDTALDYWGQGTLVTVSS
VL: DIQMTQSPSSLSASVGDRVTITCRASQSILTYVNWYQQKPGKAPKLLIYAATSRASGVPSRFSGSGSGTDFTLTISSLQPEDFATYYCQQSYNSPLTFGGGTKVEIK
B11: 374_D08 (antibody, V domains shown)
VH: EVQLLESGGGLVQPGGSLRLSCAASGFTFDSYGMNWVRQAPGKGLEWVSGINYNSGYTGYADSVKGRFTISRDNSKNTLYLQMNSLRAEDTAVYYCARSANWHDTHLDYWGQGTLVTVSS
VL: DIQMTQSPSSLSASVGDRVTITCRASQSILTYLNWYQQKPGKAPKLLIYAATSRHSGVPSRFSGSGSGTDFTLTISSLQPEDFATYYCQQSYESPLTFGGGTKVEIK
B12: 365_E02 (antibody, V domains shown)
VH: EVQLLESGGGLVQPGGSLRLSCAASGFTFSSYSMNWVRQAPGKGLEWVANINYNGGYTSYADSVKGRFTISRDNSKNTLYLQMNSLRAEDTAVYYCAKSATWHDTHLDYWGQGTLVTVSS
VL: DIQMTQSPSSLSASVGDRVTITCRASQSIISYLNWYQQKPGKAPKLLIYAATSRASGVPSRFSGSGSGTDFTLTISSLQPEDFATYYCQQSYENPLTFGGGTKVEIK
B13: 376_C06 (antibody, V domains shown)
VH: EVQLLESGGGLVQPGGSLRLSCAASGFTFSSYGMNWVRQAPGKGLEWVAGINYNGGYTSYADSVKGRFTISRDNSKNTLYLQMNSLRAEDTAVYYCARSATWHDTALDYWGQGTLVTVSS
VL: DIQMTQSPSSLSASVGDRVTITCRASQSILSYLNWYQQKPGKAPKLVIYAATSRASGVPSRFSGSGSGTDFTLTISSLQPEDFATYYCQQSYDSPLTFGGGTKVEIK
B14: 368_D10 (antibody, V domains shown)
VH: EVQLLESGGGLVQPGGSLRLSCAASGFTFDSYGMNWVRQAPGKGLEWVAGINYNSGYTSYADSVKGRFTISRDNSKNTLYLQMNSLRAEDTAVYYCARSATWHDTALDYWGQGTLVTVSS
VL: DIQMTQSPSSLSASVGDRVTITCRASQSILSYLNWYQQKPGKAPKLVIYAATSRASGVPSRFSGSGSGTDFTLTISSLQPEDFATYYCQQSYDSPLTFGGGTKVEIK
B15: 374_C08 (antibody, V domains shown)
VH: EVQLLESGGGLVQPGGSLRLSCAASGFTFDSYGMNWVRQAPGKGLEWVSGINYNSGYKSYADSVKGRFTISRDNSKNTLYLQMNSLRAEDTAVYYCARSATWHDTALDYWGQGTLVTVSS
VL: DIQMTQSPSSLSASVGDRVTITCRASQSILSYVNWYQQKPGKAPKLLIYAVTSRASGVPSRFSGSGSGTDFTLTISSLQPEDFATYYCQQSYDSPLTFGGGTKVEIK
B16: 373_C07 (antibody, V domains shown)
VH: EVQLLESGGGLVQPGGSLRLSCAASGFTFDSYSMNWVRQAPGKGLEWVAGINYNSGYTSYADSVKGRFTISRDNSKNTLYLQMNSLRAEDTAVYYCARGANWHDTHLDYWGQGTLVTVSS
VL: DIQMTQSPSSLSASVGDRVTITCRASQSILTYLNWYQQKPGKAPKLVIYAATSRASGVPSRFSGSGSGTDFTLTISSLQPEDFATYYCQQSYETPLTFGGGTKVEIK
B17: 373_G08 (antibody, V domains shown)
VH: EVQLLESGGGLVQPGGSLRLSCAASGFTFDSYSMNWVRQAPGKGLEWVSNINYNGGYTSYADSVKGRFTISRDNSKNTLYLQMNSLRAEDTAVYYCARGANWHDTALDYWGQGTLVTVSS
VL: DIQMTQSPSSLSASVGDRVTITCRASQSILTYLNWYQQKPGKAPKLLIYAATSLASGVPSRFSGSGSGTDFTLTISSLQPEDFATYYCQQSYDSPLTFGGGTKVEIK
B18: 373_H03 (antibody, V domains shown)
VH: EVQLLESGGGLVQPGGSLRLSCAASGFTFSSYSMNWVRQAPGKGLEWVSGINYNSGYKSYADSVKGRFTISRDNSKNTLYLQMNSLRAEDTAVYYCARGANWHDTALDYWGQGTLVTVSS
VL: DIQMTQSPSSLSASVGDRVTITCRASQSILSYLNWYQQKPGKAPKLLIYATTSRASGVPSRFSGSGSGTDFTLTISSLQPEDFATYYCQQSYENPLTFGGGTKVEIK

Tests used:
[1] = target: T1, His-tagged Mouse ACVR2B (mouse); assay: ELISA, coated antigen, 10 pt
[2] = target: T2, His-tagged Human ACVR2B (human); assay: ELISA, coated antigen, 10 pt

| binding [1] | binding [2] | Binder |
| --- | --- | --- |
| no binding (tested: 1 uM top) | no binding (tested: 1 uM top) | B1 |
| no binding (tested: 1 uM top) | no binding (tested: 1 uM top) | B2 |
| no binding (tested: 1 uM top) | no binding (tested: 1 uM top) | B3 |
| no binding (tested: 1 uM top) | no binding (tested: 1 uM top) | B4 |
| no binding (tested: 1 uM top) | no binding (tested: 1 uM top) | B5 |
| no binding (tested: 1 uM top) | no binding (tested: 1 uM top) | B6 |
| no binding (tested: 1 uM top) | no binding (tested: 1 uM top) | B7 |
| no binding (tested: 1 uM top) | no binding (tested: 1 uM top) | B8 |
| no binding (tested: 1 uM top) | no binding (tested: 1 uM top) | B9 |
| no binding (tested: 1 uM top) | no binding (tested: 1 uM top) | B10 |
| no binding (tested: 1 uM top) | no binding (tested: 1 uM top) | B11 |
| no binding (tested: 1 uM top) | no binding (tested: 1 uM top) | B12 |
| no binding (tested: 1 uM top) | no binding (tested: 1 uM top) | B13 |
| no binding (tested: 1 uM top) | no binding (tested: 1 uM top) | B14 |
| no binding (tested: 1 uM top) | no binding (tested: 1 uM top) | B15 |
| no binding (tested: 1 uM) | no binding (tested: 1 uM) | B16 |
| no binding (tested: 1 uM) | no binding (tested: 1 uM) | B17 |
| no binding (tested: 1 uM) | no binding (tested: 1 uM) | B18 |
